Assay results taken from paper doi:10.1101/2025.05.19.654886.
No constants are given. Whether binding was seen depends on the method and setting. In cells and extracts the contact can be indirect. Binding can be weak; no strength is given.

The chains behind the UniProt entries cited, without tags or fusion partners. Residues count along the entry.
UniProt O95721, whole entry: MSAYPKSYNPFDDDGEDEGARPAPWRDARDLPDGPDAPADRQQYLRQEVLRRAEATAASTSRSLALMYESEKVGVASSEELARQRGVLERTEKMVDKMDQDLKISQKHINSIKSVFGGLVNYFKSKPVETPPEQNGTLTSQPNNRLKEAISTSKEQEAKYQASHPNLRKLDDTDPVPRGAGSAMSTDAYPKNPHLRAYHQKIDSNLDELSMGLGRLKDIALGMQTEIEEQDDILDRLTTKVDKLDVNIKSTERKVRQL
UniProt P56962, 1-224: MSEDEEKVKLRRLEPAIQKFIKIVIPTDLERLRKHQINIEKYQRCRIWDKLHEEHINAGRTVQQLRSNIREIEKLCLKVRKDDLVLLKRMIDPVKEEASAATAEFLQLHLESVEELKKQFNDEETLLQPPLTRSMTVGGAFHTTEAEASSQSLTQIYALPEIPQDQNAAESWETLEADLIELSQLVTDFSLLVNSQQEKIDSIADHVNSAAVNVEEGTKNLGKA

Key:
[1] = target: SNAP29 (purified, unmodified) (UniProt O95721); experiment: co-IP
[2] = target: GST-STX17 (amino acids 1-224) (UniProt P56962); experiment: co-IP

“VAMP8 (purified, bought) (from UniProt O70404)” was tested, and the binding [1] was “binds” and the binding [2] was “binds”.
